The chains behind the UniProt entries cited, without tags or fusion partners.
UniProt P10635, whole entry: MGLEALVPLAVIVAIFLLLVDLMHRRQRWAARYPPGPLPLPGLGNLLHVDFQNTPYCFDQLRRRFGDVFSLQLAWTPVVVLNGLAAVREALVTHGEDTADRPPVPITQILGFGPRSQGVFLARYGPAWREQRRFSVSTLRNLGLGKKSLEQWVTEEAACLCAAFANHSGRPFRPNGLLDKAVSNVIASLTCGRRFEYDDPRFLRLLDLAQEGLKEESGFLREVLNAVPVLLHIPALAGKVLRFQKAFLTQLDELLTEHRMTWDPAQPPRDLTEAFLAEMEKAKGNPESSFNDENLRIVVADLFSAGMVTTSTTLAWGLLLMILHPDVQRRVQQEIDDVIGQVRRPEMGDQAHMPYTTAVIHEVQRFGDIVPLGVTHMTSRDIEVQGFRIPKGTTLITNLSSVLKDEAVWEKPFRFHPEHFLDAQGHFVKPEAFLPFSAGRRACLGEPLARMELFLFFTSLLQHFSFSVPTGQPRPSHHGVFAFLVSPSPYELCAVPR

According to ChEMBL document CHEMBL4007422 (J Med Chem, 2017):

Molecular target: Cytochrome P450 2D6 (Homo sapiens, UniProt P10635)
Assay: Inhibition of CYP2D6 in human liver microsomes in presence of NADPH by LC-MS/MS analysis

CN1CCN(Cc2cn(S(=O)(=O)c3ccc(F)cc3)c3ccccc23)CC1
IC50: 8.8 µM
